From article doi:10.1101/2024.10.19.619191
Results are given in words; binding and its absence hold for the method and conditions named. Binding seen in cells or lysates may run through a third protein. Some binding calls cover weakened binding; strength is not graded here.

Chains of the proteins cited; added tags and fusions are not shown. Residues count along the entry.
UniProt P43220, residues 24-463: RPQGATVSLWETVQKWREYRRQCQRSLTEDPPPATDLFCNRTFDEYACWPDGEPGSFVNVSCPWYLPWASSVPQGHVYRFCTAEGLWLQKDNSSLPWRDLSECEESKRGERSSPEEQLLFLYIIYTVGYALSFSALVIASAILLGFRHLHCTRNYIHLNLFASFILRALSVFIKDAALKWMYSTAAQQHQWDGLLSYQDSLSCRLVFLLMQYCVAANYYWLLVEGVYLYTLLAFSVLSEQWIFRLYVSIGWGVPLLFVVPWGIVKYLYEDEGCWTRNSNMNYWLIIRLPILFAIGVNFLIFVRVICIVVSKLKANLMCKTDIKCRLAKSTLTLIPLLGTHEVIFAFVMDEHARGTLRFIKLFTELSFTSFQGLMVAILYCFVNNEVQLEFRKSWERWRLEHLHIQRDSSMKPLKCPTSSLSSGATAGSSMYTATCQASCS

Target: hGlp1r^WT-SmBiT (human) (UniProt P43220)
Assay: split reporter

- binding: binds
Substance: LgBiT-β-arrestin 2 (from UniProt P32121 1-409)
